The list shows a part of the results.

By UniProt entry, the sequences of proteins in these tests, tags left out.
UniProt Q0JBA9, entry or part of it: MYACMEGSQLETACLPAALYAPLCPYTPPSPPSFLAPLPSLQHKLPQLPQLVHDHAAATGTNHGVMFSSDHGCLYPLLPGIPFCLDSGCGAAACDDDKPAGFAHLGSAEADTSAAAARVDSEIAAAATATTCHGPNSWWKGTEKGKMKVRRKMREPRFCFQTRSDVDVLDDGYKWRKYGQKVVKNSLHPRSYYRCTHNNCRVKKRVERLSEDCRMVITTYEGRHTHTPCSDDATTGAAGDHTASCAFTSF

The target of this assay is OsWRKY34 (Oryza sativa, UniProt Q0JBA9 1-250). Put plainly: protein-binding microarray (RPBM); PBS, 2% BSA, 51.3 ng/ul salmon testes DNA, 50 uM zinc acetate, 200 nM TF, 25 C, 1 h; high values mean tight binding. The conditions noted are these: protein: recombinant; tags: N-terminal polyhistidine and DsRed monomer fusion (pET32a); label: CyDye5-dUTP incorporated in the synthesized complementary strand; 3' TTTTT single-stranded linker to array surface; dsDNA, one strand shown. Put shortly:
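Ni–NTA purification followed expression in E. coli BL21-CodonPlus of transcription factors fused N-terminally to a polyhistidine tag and DsRed. At 200 nM in PBS with 2% BSA, salmon testes DNA and 50 µM zinc acetate, the protein was incubated for 1 h at 25 °C with a custom Agilent array that had been primer-extended with Cy5-dUTP and blocked with 2% BSA. After washing, the array was read on an Axon 4000B scanner. The binding signal is per-feature fluorescence intensity in arbitrary units.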
Take “TGTGTAGTCATCTCCTTTTATGCCATCTGCAAAACAAGCCCGGAGTCACCTAGTGCAG”: the binding signal was 10700 fluorescence intensity (a.u.).

With “CTGGGCTATTCCTAACTAGGTCCAACCCCATGCAGCGACACGGAGTCACCTAGTGCAG”, the binding signal is 9120 fluorescence intensity (a.u.).

Consider “TCATTCCTTCTCTTTTTTTCTCGCTTTGTTTCTCCCGTCGCGGAGTCACCTAGTGCAG”, for which the binding signal is 9920 fluorescence intensity (a.u.).

Regarding “GTGATACATTTTCGGACCATTTGGTAATTTCATTCAGACACGGAGTCACCTAGTGCAG”, the binding signal was 12100 fluorescence intensity (a.u.).

As for “TTCTGGTGAGCTTCTTGTTTGTTTCTTGTATTTTTTTGTTCGGAGTCACCTAGTGCAG”, the binding signal was 9020 fluorescence intensity (a.u.).

For “GGCACGGCGACTACCGAATTTCGATTTTTCTTTCTTTCTTCGGAGTCACCTAGTGCAG”, the binding signal was 9120 fluorescence intensity (a.u.).

For “TTCCGGTTAATTCGCTCCTACGCGCACCCACACCACCACCCGGAGTCACCTAGTGCAG”, the binding signal was 8700 fluorescence intensity (a.u.).

Take “GATGACCCATGATTCCGCGGCGTACCATCTGTTCTGTCAACGGAGTCACCTAGTGCAG”: the binding signal is 8960 fluorescence intensity (a.u.).

“CATCGCCGCCATCACTGATCCGCCGCTCCCCATCTTCTCCCGGAGTCACCTAGTGCAG”: the binding signal is 9310 fluorescence intensity (a.u.).

On to “ATTTCTATTGACTCCATGTGTTGGTCTCTTTAGTACTCCACGGAGTCACCTAGTGCAG”, for which the binding signal was 8420 fluorescence intensity (a.u.).

Take “CGACTCTAAGCATTGTCATATGTAGCAATTACGTTTCCCTCGGAGTCACCTAGTGCAG”: the binding signal is 8440 fluorescence intensity (a.u.).

As to “GACTATCCTTGTCGTGACCACACCTTCGTGAGCTCGTTGTCGGAGTCACCTAGTGCAG”, the binding signal was 8970 fluorescence intensity (a.u.).

With “TTAATGTATGACGCCGTTGACTTTTTAATCAACGTTTGACCGGAGTCACCTAGTGCAG”, the binding signal was 25900 fluorescence intensity (a.u.).

For “GGAACGTGACAGTTTTGCAATCCTCTGTTTTACACTTACACGGAGTCACCTAGTGCAG”, the binding signal is 10600 fluorescence intensity (a.u.).

Turning to “CTGGCATCCTCCTCCTCTGATCTCCTCCTCGGTCACTTCACGGAGTCACCTAGTGCAG”, the binding signal is 8430 fluorescence intensity (a.u.).

“CTCCTTGGCCCTCGCCGCGGTCGTCTCCTCCGCCGCCACGCGGAGTCACCTAGTGCAG”: the binding signal is 9220 fluorescence intensity (a.u.).

Regarding “TAGAATCTCTTTGATTTCTTGTGCTTTTTCTTGCTTTTTCCGGAGTCACCTAGTGCAG”, the binding signal was 9670 fluorescence intensity (a.u.).

For “CAAGGTTGCATTATATCTGGTTTTACGGTTTAAGGATTTTCGGAGTCACCTAGTGCAG”, the binding signal was 8680 fluorescence intensity (a.u.).

In the case of “GTATGTCTAGATTTGTAGTGTTAGGATGCAGGTTAGTTTTCGGAGTCACCTAGTGCAG”, the binding signal was 12600 fluorescence intensity (a.u.).

As to “CTTAATTAGCTAGCTAGCCGCTCAAGTCATATATATATATCGGAGTCACCTAGTGCAG”, the binding signal was 8280 fluorescence intensity (a.u.).

As for “TGCACTGCACGGTGGTGCGCTTGCCCGCGCTTCGGCCGGCCGGAGTCACCTAGTGCAG”, the binding signal is 10500 fluorescence intensity (a.u.).

On to “TTTGATTTTCGTTTTGTTTTTATTTGGCCCACCACAAGTCCGGAGTCACCTAGTGCAG”, for which the binding signal is 9320 fluorescence intensity (a.u.).

Consider “ACTCCGCACCCGCCCCACCTTGGCGTATAGATGGCCATAACGGAGTCACCTAGTGCAG”, for which the binding signal was 9790 fluorescence intensity (a.u.).

For “GCAGTCGGTCAGCCTCAATCCAAACCAAAAGCTTATTTGCCGGAGTCACCTAGTGCAG”, the binding signal is 8500 fluorescence intensity (a.u.).

In the case of “CCATTCTACCTGTATTTTAAACCTGCATCCGCAACTGGCACGGAGTCACCTAGTGCAG”, the binding signal was 9610 fluorescence intensity (a.u.).

“ACATGTCTTTGTACTATTTTCTTAATTCTTATCTTAGGTTCGGAGTCACCTAGTGCAG”: the binding signal is 10300 fluorescence intensity (a.u.).

Consider “TCTGTCTAGTGATATTTGTTGAGATTGATTGCATATCAGACGGAGTCACCTAGTGCAG”, for which the binding signal is 8930 fluorescence intensity (a.u.).

As to “TACACATTTTTTTTATGTCCTGTAGCAAATTTTGTCTTTTCGGAGTCACCTAGTGCAG”, the binding signal was 12500 fluorescence intensity (a.u.).

Regarding “CCTGGTGTTGTTGGTTCGATCGTCGATATCAAGAATTTGACGGAGTCACCTAGTGCAG”, the binding signal is 8060 fluorescence intensity (a.u.).

In the case of “TTTCACACGTCCACGATTTGCAACTGATTTTATCACGTTCCGGAGTCACCTAGTGCAG”, the binding signal is 9530 fluorescence intensity (a.u.).

“ACCCCGCACCAAACCCTAGCCGTCTCGCCCACCCACGCGCCGGAGTCACCTAGTGCAG”: the binding signal was 10500 fluorescence intensity (a.u.).

For “CTCATATGCTTTCCCTTTCTCAGCTCCAGCTCATTCGCTACGGAGTCACCTAGTGCAG”, the binding signal is 8100 fluorescence intensity (a.u.).

Turning to “CTTAATATGTGTTAAACTTTTCAATGTGTTTCCTATTGAACGGAGTCACCTAGTGCAG”, the binding signal was 8250 fluorescence intensity (a.u.).

Consider “GCGCCCGTCTCTCCGTAACCGTGCACCACTCCACCGCGCCCGGAGTCACCTAGTGCAG”, for which the binding signal is 10700 fluorescence intensity (a.u.).

As for “ACCCTGACCCCTCCTCGTCAGTTTGCCCGCCGCGGCGCCGCGGAGTCACCTAGTGCAG”, the binding signal was 10700 fluorescence intensity (a.u.).

In the case of “GTGTGGTGAAGGTGGCAGAGGAGTTGATGTTTTAGTTGAGCGGAGTCACCTAGTGCAG”, the binding signal is 8860 fluorescence intensity (a.u.).

With “TCTTCGTCGACACCACCCCAGCCGGTGTCCCCACACGCTCCGGAGTCACCTAGTGCAG”, the binding signal was 8980 fluorescence intensity (a.u.).

For “CAATCAACAGCTGTTGCATATCATGCCATGTTTCGTAATTCGGAGTCACCTAGTGCAG”, the binding signal is 8720 fluorescence intensity (a.u.).

Consider “AGTTGTTCTTTATTTCTCAGATTTTCCTTAGGCATTGTTCCGGAGTCACCTAGTGCAG”, for which the binding signal is 12500 fluorescence intensity (a.u.).

Take “CAAACTGCATTGTTTCACTTGTCTGCAGCTAGTTTCAATGCGGAGTCACCTAGTGCAG”: the binding signal was 8200 fluorescence intensity (a.u.).

For the sequence “TCTTTCATTTGGCCTACATCTTTGCAAGCGAAGTCTTTATCGGAGTCACCTAGTGCAG”, the binding signal is 12900 fluorescence intensity (a.u.).

Regarding “TGAAACCAAGATATTTGCAGACAAAGCCGTCTTTTTTATTCGGAGTCACCTAGTGCAG”, the binding signal was 8580 fluorescence intensity (a.u.).
